{
  "sequences": {"note": "Chains of the proteins cited; added tags and fusions are not shown.", "UniProt P11308, whole entry, looked up": "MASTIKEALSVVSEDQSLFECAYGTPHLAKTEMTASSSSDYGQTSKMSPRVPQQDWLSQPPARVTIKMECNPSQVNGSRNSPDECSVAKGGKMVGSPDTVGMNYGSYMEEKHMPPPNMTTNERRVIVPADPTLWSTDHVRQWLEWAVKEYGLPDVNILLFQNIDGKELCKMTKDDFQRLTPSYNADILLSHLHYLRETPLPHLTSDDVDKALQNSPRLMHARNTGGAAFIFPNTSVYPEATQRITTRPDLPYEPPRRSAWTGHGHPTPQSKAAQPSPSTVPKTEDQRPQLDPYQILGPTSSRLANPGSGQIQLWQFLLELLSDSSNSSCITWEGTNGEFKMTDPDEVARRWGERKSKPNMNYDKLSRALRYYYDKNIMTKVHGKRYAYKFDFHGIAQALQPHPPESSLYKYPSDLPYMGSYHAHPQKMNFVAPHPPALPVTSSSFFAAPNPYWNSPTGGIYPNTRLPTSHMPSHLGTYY"},
  "source": "PubChem BioAssay AID624246",
  "about": "(National Center for Advancing Translational Sciences (NCATS), 2012)",
  "note": "Screen size: about 370,000 compounds; about 100 (0.027%) were called active. This list was built around the results that the source calls inconclusive (neither active nor inactive); the mix of calls is not that of the screen. The call rests on the fitted dose curve; in most records, active means well fitted inhibition curve with a large enough effect in the polarisation, with a control signal flat; inconclusive means small, poorly fitted or top-dose-only effect, or effect the other way, or a change in a side signal; inactive means no such curve, though single readings can be large or run the other way; the % refers to the polarisation. A potency beside an inconclusive call is a rough fit, not a confirmed value. “Side channel” marks fits to a control or component signal instead of the main read-out. Potency means the concentration at half of the fitted maximal effect.",
  "data": [
    {"molecular_target": "Transcriptional regulator ERG (Homo sapiens) (UniProt P11308)", "test": "qHTS for Small Molecule Inhibitors of the ERG Ets/DNA interaction; on FP activity, negative = inhibition: % of control where 0% means no effect", "conditions": "fluorescence polarization, His-ERG Ets domain / labelled DNA; FP activity, negative = inhibition: at 76.9 µM (top of the series)", "procedure,_shortened": "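His-tagged ERG Ets domain (1 uM in the protein solution; 300mM KCl, 50mM Tris-HCl, 1mM EDTA, 1mM DTT, pH 7.5) received compound, then a probe mix of 5 nM fluorescein-DNA and 100nM Texas-615-DNA. Fluorescence polarization was read for both dyes.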", "values": [
      {"smiles": "Cc1cccc(NC(=S)NCc2ccc3c(c2)cc(C)n3C)c1C", "Potency": "active: 28.2 µM"},
      {"smiles": "COc1cc2c(cc1OC)C(c1cccc(C)c1)CC(=O)N2", "note": "(stereo not given)", "Potency": "inconclusive: 10 µM [inhibitor, single point]"},
      {"smiles": "CC(C)CC(=O)CN1C(=O)C2(OCCO2)c2ccccc21", "Potency": "inconclusive: 0.891 µM [inhibitor, partial curve, poor fit]"},
      {"smiles": "CC(=NNc1nc2ccccc2o1)c1cc2ccccc2cn1", "FP activity, negative = inhibition": "inactive: 9.2%"},
      {"smiles": "COC(=O)c1sccc1NC(=O)c1ccccc1Br", "Potency": "inconclusive: 31.6 µM [inhibitor, single point]"},
      {"smiles": "O=C(c1cc(O)c(O)c([N+](=O)[O-])c1)c1ccccc1F", "FP activity, negative = inhibition": "inactive: 1.63%"},
      {"smiles": "COc1ccc(S(=O)(=O)N2CCCC(C(F)(F)F)C2)cc1", "note": "(stereo not given)", "Potency": "inconclusive: 50.1 µM [inhibitor, partial curve, poor fit]"},
      {"smiles": "O=C1CCN(S(=O)(=O)c2ccc(Br)cc2)CCN1", "Potency": "inconclusive: 50.1 µM [inhibitor, single point]"},
      {"smiles": "COc1ccc(-c2nc(CS(=O)(=O)CC(=O)NCCc3ccc(C)cc3)c(C)o2)cc1", "Potency": "inconclusive: 5.62 µM [quencher, side channel, full curve]"},
      {"smiles": "CCn1ncc(-c2csc(N)n2)c1C", "Potency": "inconclusive: 5.62 µM [quencher, side channel, single point]"},
      {"smiles": "COc1cccc2c1C(=O)c1c(O)c3c(c(O)c1C2=O)CC(O)(C(C)=NNC(=O)c1ccc(Cl)c(Cl)c1)CC3OC1CC(N)C(O)C(C)O1", "note": "(stereo not given)", "Potency": "active: 2.51 µM"},
      {"smiles": "O=C(O)c1cc2nc(-c3ccccc3)cc(-c3ccccc3)n2n1", "Potency": "inconclusive: 35.5 µM [inhibitor, partial curve]"},
      {"smiles": "COc1cccc(/C=N/NC(N)=S)c1OCc1cccc(Cl)c1", "FP activity, negative = inhibition": "inactive: -6.15%"},
      {"smiles": "CC1CS(=O)(=O)CCN1N=Cc1ccc([N+](=O)[O-])o1", "note": "(stereo not given)", "Potency": "inconclusive: 11.2 µM [inhibitor, single point]"},
      {"smiles": "Cc1c(CN2CCCCC2)c(O)n(CCCO)c(=O)c1C#N", "Potency": "inconclusive: 39.8 µM [fluorescent, side channel, single point]"},
      {"smiles": "CCCNC(=O)NS(=O)(=O)c1ccc(Cl)cc1", "FP activity, negative = inhibition": "inactive: 35.1%"},
      {"smiles": "Cc1ccc(NC(=O)CS(=O)CC(=O)Nc2ccccc2-c2ccc(C)o2)cc1", "note": "(stereo not given)", "Potency": "inconclusive: 28.2 µM [inhibitor, single point]"},
      {"smiles": "CCc1cccc(C)c1NC(=O)CSc1nc(C)c(C)o1", "Potency": "inconclusive: 31.6 µM [inhibitor, partial curve, poor fit]"},
      {"smiles": "N/C(=N\\OC(=O)CC1CCCCC1)c1ccncc1", "FP activity, negative = inhibition": "inactive: 5.11%"},
      {"smiles": "CCOc1cc(OCC)cc(C(=O)Nc2cccc(-c3nc4ccccc4[nH]3)c2)c1", "Potency": "inconclusive: 28.2 µM [quencher, side channel, single point]"},
      {"smiles": "Cc1ccc(CCNC(=O)c2ccc3[nH]c(C)c(C)c3c2)cc1", "FP activity, negative = inhibition": "inactive: -0.71%"},
      {"smiles": "O=C(Nc1nnc(CCc2ccccc2)s1)c1ccco1", "FP activity, negative = inhibition": "inactive: -2.01%"},
      {"smiles": "Cc1cc(C)cc(N(C(=O)c2csnn2)C(C(=O)NC(C)(C)C)c2ccncc2)c1", "note": "(stereo not given)", "Potency": "inconclusive: 50.1 µM [inhibitor, single point]"},
      {"smiles": "COc1ccc(-c2nnc(SC(C)C(=O)O)o2)cc1", "note": "(stereo not given)", "Potency": "inconclusive: 50.1 µM [fluorescent, side channel, partial curve, poor fit]"},
      {"smiles": "O=C(NC(=S)Nc1cccc(NC(=O)c2ccccc2)c1)c1cccc([N+](=O)[O-])c1", "FP activity, negative = inhibition": "inactive: -0.904%"},
      {"smiles": "CCc1ccc(NC(=O)Cn2nc(SC)c(S(=O)(=O)c3ccc(OC)cc3)c2N)cc1", "FP activity, negative = inhibition": "inactive: 1.73%"},
      {"smiles": "CCn1cc(C(=O)N2CCN(c3cccc(Cl)c3)CC2)c(=O)c2cc(S(=O)(=O)N3CCC(C)CC3)ccc21", "FP activity, negative = inhibition": "inactive: 2.48%"},
      {"smiles": "Oc1cc2c(cc1O)C1c3ccc(O)c(O)c3OCC1(O)C2", "note": "(stereo not given)", "FP activity, negative = inhibition": "inactive: -5.56%"},
      {"smiles": "CCOC(=O)C1=C(C)NC(SCC(=O)O)=NC1c1ccccc1", "note": "(stereo not given)", "Potency": "inconclusive: 35.5 µM [fluorescent, single point]"},
      {"smiles": "Cc1nc2cc(-c3cccc(F)c3)nn2c(C)c1CCC(=O)NC(C)c1ccccc1", "note": "(stereo not given)", "Potency": "inconclusive: 35.5 µM [quencher, side channel, single point]"},
      {"smiles": "Cc1cc(NS(=O)(=O)c2ccc(NC(=O)Cc3ccc(Cl)c(Cl)c3)cc2)no1", "FP activity, negative = inhibition": "inactive: 11.1%"},
      {"smiles": "CCOc1cc2nc(-c3ccc(OC)c(OC)c3)nc(NCCCN3CCOCC3)c2cc1OC", "Potency": "inconclusive: 35.5 µM [quencher, side channel, partial curve, poor fit]"},
      {"smiles": "CC1N(C)c2cc(NC(=O)c3ccco3)ccc2C1(C)C", "note": "(stereo not given)", "Potency": "inconclusive: 14.1 µM [fluorescent, side channel, partial curve, poor fit]"},
      {"smiles": "Oc1cncc(Cc2ccccc2)c1", "Potency": "inconclusive: 11.2 µM [inhibitor, single point]"},
      {"smiles": "COc1ccc(-c2nc3c(=O)n(C)c(=O)[nH]c3n2CCc2ccccc2)cc1", "Potency": "inconclusive: 35.5 µM [quencher, side channel, partial curve, poor fit]"},
      {"smiles": "CCN(CC)S(=O)(=O)c1ccc(NC(=O)CO/N=C(\\N)c2ccccc2)cc1", "FP activity, negative = inhibition": "inactive: 3.34%"},
      {"smiles": "Cc1ccc(NC(=O)Cn2c(=O)n(Cc3ccc(F)cc3)c(=O)c3cccnc32)cc1C", "Potency": "inconclusive: 28.2 µM [fluorescent, side channel, partial curve, poor fit]"},
      {"smiles": "COc1ccc(C2C(C(C)=O)=C(O)C(=O)N2c2ccc(C)cc2)cc1", "note": "(stereo not given)", "Potency": "inconclusive: 25.1 µM [inhibitor, partial curve, poor fit]"},
      {"smiles": "O=S(=O)(NC1CCCCC1Oc1ccccc1)c1ccc(Cl)cc1", "note": "(stereo not given)", "Potency": "inconclusive: 0.794 µM [quencher, full curve, poor fit]"},
      {"smiles": "Clc1ccccc1N=Nc1ccccn1", "Potency": "inconclusive: 35.5 µM [inhibitor, single point]"},
      {"smiles": "O=[n+]1c2c(n([O-])c3cc(F)c(N4CCCC4)cc31)CCCC2", "Potency": "inconclusive: 28.2 µM [fluorescent, side channel, partial curve, poor fit]"},
      {"smiles": "CC(C)Cc1nnc(NS(=O)(=O)c2ccc([N+](=O)[O-])cc2)s1", "Potency": "inconclusive: 25.1 µM [inhibitor, partial curve]"},
      {"smiles": "CCOC(=O)C1=C(C)n2c(s/c(=C/c3cccc([N+](=O)[O-])c3)c2=O)=NC1c1ccc(O)c(OC)c1", "note": "(stereo not given)", "Potency": "inconclusive: 10 µM [fluorescent, full curve, poor fit]"},
      {"smiles": "COc1cccc(NC(=O)/C(C#N)=C/c2c(C)n(Cc3ccccc3)c3ccccc23)c1", "Potency": "inconclusive: 39.8 µM [fluorescent, side channel, single point]"},
      {"smiles": "Cc1[nH]cnc1CN1CCc2c(c3ccccc3n2C)C1=O", "Potency": "inconclusive: 5.01 µM [inhibitor, single point]"},
      {"smiles": "O=C(C1CC(=O)N(c2ccc(Cl)cc2)C1)N1CCCCCC1", "note": "(stereo not given)", "Potency": "inconclusive: 7.94 µM [inhibitor, single point]"},
      {"smiles": "CCCCCCNC(=O)c1c[nH]c2ccc(S(=O)(=O)N(C)c3ccc(C(C)C)cc3)cc2c1=O", "FP activity, negative = inhibition": "inactive: -1.47%"},
      {"smiles": "COc1cccc(CNC(=O)Cn2nc(-c3ccc(C)cc3)ccc2=O)c1", "FP activity, negative = inhibition": "inactive: 4.87%"},
      {"smiles": "CCn1c(O)c(/C=N/n2cnnc2)sc1=S", "Potency": "inconclusive: 50.1 µM [fluorescent, side channel, single point]"},
      {"smiles": "CCOc1ccc(CCNC(=O)COC(=O)COc2ccc(C#N)cc2)cc1OCC", "Potency": "inconclusive: 50.1 µM [inhibitor, single point]"},
      {"smiles": "CCN(CC)S(=O)(=O)c1ccc2c(c1)c(=O)c(C(=O)NCCc1ccccc1)cn2C", "Potency": "inconclusive: 100 µM [inhibitor, single point]"},
      {"smiles": "COc1ccc(-c2cc(N)n(S(=O)(=O)Cc3ccccc3)n2)c(OC)c1", "Potency": "inconclusive: 50.1 µM [inhibitor, partial curve, poor fit]"},
      {"smiles": "COc1ccc(OCC(=O)Nc2cccc(C(=O)OCc3cc(=O)n4nc(C)sc4n3)c2)cc1", "FP activity, negative = inhibition": "inactive: -16%"},
      {"smiles": "CCCCN(CC)CCNC(=O)c1cc2c(-c3ccc(Cl)cc3)nn(C)c2s1", "Potency": "inconclusive: 35.5 µM [quencher, side channel, partial curve, poor fit]"},
      {"smiles": "O=C(Cc1cccs1)Nc1cccc(-c2nc3cc4ccccc4cc3[nH]2)c1", "Potency": "inconclusive: 28.2 µM [quencher, side channel, partial curve]"},
      {"smiles": "O=C(C1=NN[C@@H]2C(=O)N(c3cccc(F)c3)C(=O)[C@H]12)C(c1ccccc1)c1ccccc1", "FP activity, negative = inhibition": "inactive: 6.91%"},
      {"smiles": "Cn1c(CO)cnc1SCc1ccc(F)cc1", "Potency": "inconclusive: 35.5 µM [inhibitor, single point]"},
      {"smiles": "COc1cccc2c1C(=O)c1c(O)c3c(c(O)c1C2=O)C[C@@](O)(C(=O)CO)C[C@@H]3OC1CC(N)C(O)C(C)O1", "note": "(stereo not given in full)", "Potency": "inconclusive: 31.6 µM [inhibitor, partial curve, poor fit]"},
      {"smiles": "CCOc1ccc(NS(=O)(=O)c2ccc(NC(C)=O)c(OC)c2)cc1", "Potency": "inconclusive: 100 µM [inhibitor, single point]"},
      {"smiles": "CN(C)CCCN(C(=O)c1ccc2c(c1)CCCC2)c1nc2c(F)cccc2s1", "FP activity, negative = inhibition": "inactive: -3.58%"},
      {"smiles": "CC(C)N1CCN(Cc2ccc(Sc3nncn3C)o2)CC1CCO", "note": "(stereo not given)", "Potency": "inconclusive: 12.6 µM [inhibitor, partial curve, poor fit]"},
      {"smiles": "CCN1/C(=C/c2ccc3cccc(C)c3[n+]2CC)Sc2ccccc21", "Potency": "inconclusive: 25.1 µM [fluorescent, side channel, single point]"},
      {"smiles": "COC(=O)N/N=C/c1cn(CCOc2cccc(OC)c2)c2ccccc12", "FP activity, negative = inhibition": "inactive: 15.6%"},
      {"smiles": "Cc1cc(C)cc(NC(=S)N(Cc2ccc(Br)cc2)Cc2ccc(C(=O)O)cc2)c1", "FP activity, negative = inhibition": "inactive: -2.58%"},
      {"smiles": "Cc1cccc(N2CCN(C(=O)CCC(=O)N3CC(C)Oc4ccccc43)CC2)c1C", "note": "(stereo not given)", "FP activity, negative = inhibition": "inactive: -9.34%"}
    ]}
  ]
}
